Data on three substances can be found in article PMC9885601.

Amino acid sequences for entries named in this document (tags omitted). A change or cut given only in a name is not applied to a line headed by its entry. Residues count along the entry.
UniProt P09055, residues 21-798: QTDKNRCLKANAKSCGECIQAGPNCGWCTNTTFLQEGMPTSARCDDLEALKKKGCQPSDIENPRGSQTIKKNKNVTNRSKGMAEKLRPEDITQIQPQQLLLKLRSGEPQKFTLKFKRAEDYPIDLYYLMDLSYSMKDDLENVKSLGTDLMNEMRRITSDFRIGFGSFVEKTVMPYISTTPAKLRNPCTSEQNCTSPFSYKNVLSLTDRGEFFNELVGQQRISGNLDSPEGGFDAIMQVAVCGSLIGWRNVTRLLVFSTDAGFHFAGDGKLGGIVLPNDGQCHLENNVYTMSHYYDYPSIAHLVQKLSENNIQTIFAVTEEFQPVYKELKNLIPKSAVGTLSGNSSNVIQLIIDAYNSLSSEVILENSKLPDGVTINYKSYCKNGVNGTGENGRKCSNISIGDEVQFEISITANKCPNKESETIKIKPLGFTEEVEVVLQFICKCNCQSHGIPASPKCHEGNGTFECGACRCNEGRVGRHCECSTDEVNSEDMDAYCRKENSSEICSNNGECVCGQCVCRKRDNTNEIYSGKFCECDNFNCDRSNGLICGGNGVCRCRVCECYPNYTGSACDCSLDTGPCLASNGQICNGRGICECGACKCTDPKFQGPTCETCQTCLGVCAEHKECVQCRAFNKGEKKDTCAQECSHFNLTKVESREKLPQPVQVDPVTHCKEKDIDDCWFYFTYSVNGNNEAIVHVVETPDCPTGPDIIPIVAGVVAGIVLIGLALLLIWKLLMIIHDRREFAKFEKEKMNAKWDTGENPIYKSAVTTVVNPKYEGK
UniProt P05556: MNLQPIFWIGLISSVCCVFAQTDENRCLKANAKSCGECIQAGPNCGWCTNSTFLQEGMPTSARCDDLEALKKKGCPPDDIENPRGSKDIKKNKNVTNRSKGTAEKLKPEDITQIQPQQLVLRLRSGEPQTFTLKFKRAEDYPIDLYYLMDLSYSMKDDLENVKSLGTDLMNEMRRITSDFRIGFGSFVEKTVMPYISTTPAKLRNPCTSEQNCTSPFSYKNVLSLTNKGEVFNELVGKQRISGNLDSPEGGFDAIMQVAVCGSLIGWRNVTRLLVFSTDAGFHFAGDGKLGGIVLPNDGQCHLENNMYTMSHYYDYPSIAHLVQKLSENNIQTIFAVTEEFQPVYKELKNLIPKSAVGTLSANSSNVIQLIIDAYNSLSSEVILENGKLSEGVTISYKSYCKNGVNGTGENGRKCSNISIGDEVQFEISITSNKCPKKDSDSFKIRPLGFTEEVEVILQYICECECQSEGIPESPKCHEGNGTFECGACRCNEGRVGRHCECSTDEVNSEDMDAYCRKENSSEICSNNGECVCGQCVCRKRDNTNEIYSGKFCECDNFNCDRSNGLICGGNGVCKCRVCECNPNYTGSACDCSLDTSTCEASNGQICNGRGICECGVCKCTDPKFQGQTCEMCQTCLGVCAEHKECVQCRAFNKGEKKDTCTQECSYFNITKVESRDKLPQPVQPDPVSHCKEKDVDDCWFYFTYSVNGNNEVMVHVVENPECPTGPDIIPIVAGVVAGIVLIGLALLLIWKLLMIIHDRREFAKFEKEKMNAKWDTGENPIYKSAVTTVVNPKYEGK
UniProt P25799: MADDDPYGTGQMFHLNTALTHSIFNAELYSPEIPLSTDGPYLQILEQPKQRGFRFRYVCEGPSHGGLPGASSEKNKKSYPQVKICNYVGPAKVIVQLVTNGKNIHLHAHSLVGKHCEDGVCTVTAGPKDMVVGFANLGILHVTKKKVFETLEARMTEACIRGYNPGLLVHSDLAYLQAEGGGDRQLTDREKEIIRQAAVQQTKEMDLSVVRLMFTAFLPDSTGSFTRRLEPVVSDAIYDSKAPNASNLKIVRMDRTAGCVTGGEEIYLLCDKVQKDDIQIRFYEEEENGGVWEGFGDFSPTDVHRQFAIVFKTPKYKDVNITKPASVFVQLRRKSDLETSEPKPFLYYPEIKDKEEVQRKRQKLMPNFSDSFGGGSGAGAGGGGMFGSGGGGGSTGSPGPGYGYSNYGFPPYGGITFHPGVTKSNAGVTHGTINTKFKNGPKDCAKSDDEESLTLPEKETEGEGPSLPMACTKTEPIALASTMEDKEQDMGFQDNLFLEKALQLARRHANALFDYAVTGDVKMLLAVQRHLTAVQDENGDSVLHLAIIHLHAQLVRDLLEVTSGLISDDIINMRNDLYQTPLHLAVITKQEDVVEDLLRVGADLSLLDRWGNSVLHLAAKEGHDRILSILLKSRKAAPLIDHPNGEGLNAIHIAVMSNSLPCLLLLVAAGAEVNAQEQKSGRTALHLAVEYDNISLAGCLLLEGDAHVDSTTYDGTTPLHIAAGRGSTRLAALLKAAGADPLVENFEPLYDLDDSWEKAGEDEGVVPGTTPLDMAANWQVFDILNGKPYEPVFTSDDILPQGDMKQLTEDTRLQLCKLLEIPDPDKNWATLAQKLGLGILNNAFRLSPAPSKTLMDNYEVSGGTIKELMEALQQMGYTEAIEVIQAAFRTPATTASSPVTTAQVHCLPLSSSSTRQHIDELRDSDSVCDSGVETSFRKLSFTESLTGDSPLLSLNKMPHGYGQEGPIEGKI
UniProt P19838: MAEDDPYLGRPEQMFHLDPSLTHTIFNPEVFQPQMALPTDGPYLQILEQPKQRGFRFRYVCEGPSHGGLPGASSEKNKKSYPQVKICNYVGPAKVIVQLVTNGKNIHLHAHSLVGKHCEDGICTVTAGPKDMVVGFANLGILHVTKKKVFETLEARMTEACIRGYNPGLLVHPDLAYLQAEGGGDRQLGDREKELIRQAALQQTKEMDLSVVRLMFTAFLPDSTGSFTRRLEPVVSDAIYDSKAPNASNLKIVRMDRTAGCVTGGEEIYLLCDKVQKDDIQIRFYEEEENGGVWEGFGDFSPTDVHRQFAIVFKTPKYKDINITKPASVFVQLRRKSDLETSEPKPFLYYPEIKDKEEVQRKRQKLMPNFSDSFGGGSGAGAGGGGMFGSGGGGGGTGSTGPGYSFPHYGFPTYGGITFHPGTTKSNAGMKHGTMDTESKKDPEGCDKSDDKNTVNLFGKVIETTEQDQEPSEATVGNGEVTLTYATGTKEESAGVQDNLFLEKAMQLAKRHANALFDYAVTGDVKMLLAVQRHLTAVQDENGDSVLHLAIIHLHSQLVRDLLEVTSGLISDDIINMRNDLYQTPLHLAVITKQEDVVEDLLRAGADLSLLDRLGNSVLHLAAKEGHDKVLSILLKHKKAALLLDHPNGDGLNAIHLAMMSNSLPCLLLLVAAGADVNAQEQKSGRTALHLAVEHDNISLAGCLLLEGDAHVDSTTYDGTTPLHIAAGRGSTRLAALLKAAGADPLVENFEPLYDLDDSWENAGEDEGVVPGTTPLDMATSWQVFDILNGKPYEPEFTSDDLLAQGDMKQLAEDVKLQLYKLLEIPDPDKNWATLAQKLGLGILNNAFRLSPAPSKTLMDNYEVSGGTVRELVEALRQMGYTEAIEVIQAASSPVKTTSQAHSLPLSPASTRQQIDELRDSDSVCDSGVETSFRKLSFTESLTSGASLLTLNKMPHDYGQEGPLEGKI

These are yes or no findings as the source states them, for the method shown. In cells and extracts the contact can be indirect. Some binding calls cover weakened binding; strength is not graded here.

In experiment [1] the target is integrin β1 (mouse (endogenous in liver tissue and primary hepatocytes)) (UniProt P09055). As to the kind of experiment: co-IP; mouse liver tissue lysed in RIPA buffer; 500 µg sample with 2 µg anti-integrin β1 antibody and Protein A-agarose overnight at 4 °C; blot with an NF-κB p105 antibody that binds the C-terminus; livers of wild-type, Sema7a^R145W homozygous and DEN/CCl4 hepatocellular carcinoma mice.

For experiment [2], the target named is Flag-tagged integrin β1 (UniProt P05556). As to the kind of experiment: co-IP; HEK293 cells cotransfected for 24 h with Flag-integrin β1 and His-NF-κB p105 or His-NF-κB p55; RIPA lysate, Protein A-agarose, overnight at 4 °C.

With “nuclear factor NF-kappa-B p105 (from UniProt P25799-1 1-971)”, the binding entry in experiment [1] is “binds”.
As to “His-tagged NF-κB p105 (from UniProt P19838 1-968)”, in experiment [2], the binding result was “binds”.
NF-κB p50 (from UniProt P25799 1-431): in experiment [1], the binding result was “no binding”.
